Reference: EP0874242A1, “Device and apparatus for the simultaneous detection of multiple analytes” (Randox Laboratories Ltd., priority 1997, dated 1998)

What was measured:
sulphonamide antibodies [1] = assay: Multi-sulphonamide competitive immunoassay, covalent versus passive immobilisation of the antibodies; format: binding; settings: 10 ng/ml; for RLU Covalent: covalent immobilisation: direct spotting on to glycidoxy silane surface; for RLU Passive: passive immobilisation: direct spotting on to dichlorodimethylsilane-reacted surface
Text: The % of binding due to covalent or passive interactions are compared in Tables 6 and 7. Covalent interaction contributed on average 81.8% to the overall binding, clearly indicating covalent binding of the sulphonamide antibodies.

sulphonamide antibodies [2] = assay: Multi-sulphonamide competitive immunoassay, antibodies on APTES ceramic substrates with dihydrazide linker, with or without periodate activation; format: binding
Protocol: Multi-sulphonamide standards (200 µl) and a cocktail of sulphonamide horseradish peroxidase conjugates (100 µl) were added to the reaction wells containing the device as appropriate and incubated for 15 minutes at room temperature. The standards contained 5, 10, 50 and 100 ng/ml for each of the 12 sulphonamides.
Thereafter the multi-sulphonamide devices were washed with PBS/PEG buffer to remove excess reagents and 300 µl chemiluminescent substrate [luminol (1.4mM)/urea hydrogen peroxide (9.6mM)] per device was introduced. The devices were imaged using a CCD camera with an exposure time of up to 4 minutes. Standard curves were obtained for each of the 12 individual sulphonamides. Calibration curves for each of the 12 individual sulphonamides are represented graphically in Figure 15. The % B/Bo value plotted on the Y-axis represents the % […] of the zero standard RLU (Relative light unit) value caused by each individual sulphonamide standard (plotted on the X-axis as log10).
In a further example, ceramic substrates silanated with APTES were reacted with a dihydrazide linker. Sulphonamide antibodies were treated with sodium periodate to render them reactive towards the hydrazide linker. Control sulphonamide antibodies were simply dialysed against sodium acetate buffer pH 5.5. The RLU results are shown in Tables 4 (not treated) and 5 (treated by periodate method). […] The control antibodies (no periodate activation) gave very poor standard curves when compared to the covalently immobilised sulphonamide antibodies.

[3] = 10 ng/ml standard, antibodies treated by periodate method, covalently immobilised (Table 5)
[4] = 10 ng/ml standard, control antibodies not treated with periodate (Table 4)
[5] = 100 ng/ml standard, antibodies treated by periodate method, covalently immobilised (Table 5)
[6] = 100 ng/ml standard, control antibodies not treated with periodate (Table 4)

SMILES	RLU Covalent (sulphonamide antibodies [1]) [RLU]	RLU Passive (sulphonamide antibodies [1]) [RLU]	RLU (sulphonamide antibodies [2]; [3]) [RLU]	RLU (sulphonamide antibodies [2]; [4]) [RLU]	RLU (sulphonamide antibodies [2]; [5]) [RLU]	RLU (sulphonamide antibodies [2]; [6]) [RLU]
COc1ccc(NS(=O)(=O)c2ccc(N)cc2)nn1 [Sulphamethoxypyridazine, sulphamethoxypyridazine]	13408	770	10509	928	5687	–
COc1ncnc(NS(=O)(=O)c2ccc(N)cc2)c1OC [Sulphadoxine, sulphadoxine]	11131	904	3240	1456	2135	–
Nc1ccc(S(=O)(=O)Nc2nccs2)cc1 [Sulphathiazole, sulphathiazole]	8087	675	4602	814	2353	–
Cc1cc(C)nc(NS(=O)(=O)c2ccc(N)cc2)n1 [Sulphamethazine, sulphamethazine]	7535	574	2810	–	2213	–
Nc1ccc(S(=O)(=O)Nc2cnc3ccccc3n2)cc1 [Sulphaquinoxaline, sulphaquinoxaline]	8716	548	6112	828	5588	968
Cc1nnc(NS(=O)(=O)c2ccc(N)cc2)s1 [Sulphamethizole, sulphamethizole]	11132	1359	5689	1257	4882	–
Cc1noc(NS(=O)(=O)c2ccc(N)cc2)c1C [Sulphisoxazole, sulphisoxazole]	5774	1031	6686	1108	2270	–
COc1cc(NS(=O)(=O)c2ccc(N)cc2)nc(OC)n1 [Sulphadimethoxine, sulphadimethoxine]	5832	581	2554	–	1983	781
Cc1ccnc(NS(=O)(=O)c2ccc(N)cc2)n1 [Sulphamerazine, sulphamerazine]	11077	988	5521	1137	3240	1224
Nc1ccc(S(=O)(=O)Nc2ccc(Cl)nn2)cc1 [Sulphachloropyridazine, sulphachloropyridazine]	8434	1051	7565	1585	2096	–
